{"source": "paper PMC7819943", "about": "“Rice protein-binding microarrays: a tool to detect cis-acting elements near promoter regions in rice”", "note": "The other results are listed elsewhere or left out.", "data": [{"target": "T1, OsSMF1 (Oryza sativa, UniProt Q6ZLB0 1-436)", "T1 sequence": "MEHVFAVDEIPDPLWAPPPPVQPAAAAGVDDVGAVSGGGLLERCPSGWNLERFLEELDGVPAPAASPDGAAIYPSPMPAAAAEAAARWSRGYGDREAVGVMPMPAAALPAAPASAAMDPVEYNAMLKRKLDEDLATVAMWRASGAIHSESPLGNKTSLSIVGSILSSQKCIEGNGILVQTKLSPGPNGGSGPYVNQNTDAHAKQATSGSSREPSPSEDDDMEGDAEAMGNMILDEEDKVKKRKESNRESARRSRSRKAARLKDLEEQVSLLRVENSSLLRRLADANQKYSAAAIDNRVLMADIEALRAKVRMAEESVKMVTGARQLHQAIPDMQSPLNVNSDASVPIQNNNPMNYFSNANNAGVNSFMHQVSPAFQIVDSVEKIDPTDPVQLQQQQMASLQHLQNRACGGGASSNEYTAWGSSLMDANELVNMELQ", "assay": "protein-binding microarray (RPBM); PBS, 2% BSA, 51.3 ng/ul salmon testes DNA, 50 uM zinc acetate, 200 nM TF, 25 C, 1 h; high values mean tight binding", "details": "protein: recombinant; tags: N-terminal polyhistidine and DsRed monomer fusion (pET32a); chain copies: 2; label: CyDye5-dUTP incorporated in the synthesized complementary strand; 3' TTTTT single-stranded linker to array surface; dsDNA, one strand shown", "outline": "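Using Ni–NTA, transcription factors fused N-terminally to polyhistidine and DsRed were purified after expression in E. coli BL21-CodonPlus. These were incubated at 200 nM with a blocked, double-stranded custom Agilent array for 1 h at 25 °C in a buffer containing 50 µM zinc acetate, and the array was washed. The binding signal is per-feature fluorescence intensity (arbitrary units) on an Axon 4000B scanner.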", "values": [{"sequence": "CCAATCCCACGCCACGCCACCGCTCGAGCCGATTCGAATCCGGAGTCACCTAGTGCAG", "binding signal": "5090 fluorescence intensity (a.u.)"}, {"sequence": "CATGGCCGGAGAAGCTGACGCGGAACGGCACCTCGCTCGCCGGAGTCACCTAGTGCAG", "binding signal": "5580 fluorescence intensity (a.u.)"}, {"sequence": "TCTTCTGATCAGGACAGAGAGGAACGTCATATGACGTTCGCGGAGTCACCTAGTGCAG", "binding signal": "4300 fluorescence intensity (a.u.)"}, {"sequence": "GGCGCAGATGTGCGTGGTCGCCAGCAAGGAGTCAGTTGGCCGGAGTCACCTAGTGCAG", "binding signal": "4780 fluorescence intensity (a.u.)"}, {"sequence": "CATCCACGTGGTGCCGCACCTAACCAGCGTAGCAGTTGCTCGGAGTCACCTAGTGCAG", "binding signal": "5710 fluorescence intensity (a.u.)"}, {"sequence": "GGGGCCATCCTCTTTCTCTGAGGATCATCATGCCTTGAGGCGGAGTCACCTAGTGCAG", "binding signal": "37600 fluorescence intensity (a.u.)"}, {"sequence": "CCACACAGCGATAATCGAGCGGATTGGACCAAAGTACGAGCGGAGTCACCTAGTGCAG", "binding signal": "38200 fluorescence intensity (a.u.)"}, {"sequence": "GCCTCTTGCATTTGCTGCCGCCGCCGCCCCGACCGCCGCACGGAGTCACCTAGTGCAG", "binding signal": "3260 fluorescence intensity (a.u.)"}, {"sequence": "TTCTTTGAATGTGAGTTGACATGCTTGTTTTCTCATCAGGCGGAGTCACCTAGTGCAG", "binding signal": "3370 fluorescence intensity (a.u.)"}, {"sequence": "TATTTTAAATGGGTATCCATATATCCGATGTGACACGGCACGGAGTCACCTAGTGCAG", "binding signal": "4630 fluorescence intensity (a.u.)"}, {"sequence": "CGGGTAGGGTGGGGTGGGGCGGGGTGGGGTTGGCGGCGACCGGAGTCACCTAGTGCAG", "binding signal": "5320 fluorescence intensity (a.u.)"}, {"sequence": "GCACGACCGCGTGCACATGCTCGTCGTGGCAGTGCTTCTTCGGAGTCACCTAGTGCAG", "binding signal": "3810 fluorescence intensity (a.u.)"}, {"sequence": "AAATACTTTGAATTCCACGTATAACTGCACACCATGTGTTCGGAGTCACCTAGTGCAG", "binding signal": "6760 fluorescence intensity (a.u.)"}, {"sequence": "TTGGAAGTTTATGTGTGTAGAAAAGTTTTGATGTAATGAACGGAGTCACCTAGTGCAG", "binding signal": "44400 fluorescence intensity (a.u.)"}, {"sequence": "CACCAATCGACATGGCGTCAGCAGGAGAAAACCGGCGGCACGGAGTCACCTAGTGCAG", "binding signal": "5310 fluorescence intensity (a.u.)"}, {"sequence": "GCAAGTTTAGGAACCGGAATGACACAGTCGAACAAGTTTGCGGAGTCACCTAGTGCAG", "binding signal": "4090 fluorescence intensity (a.u.)"}, {"sequence": "AAGAGATGTGGCAATCTTGAAGAGAAAATTATCTACCTTGCGGAGTCACCTAGTGCAG", "binding signal": "3430 fluorescence intensity (a.u.)"}, {"sequence": "GAACTCTGAAGAAAGTAGTGTTGCGTTGGCAAACCCTTCTCGGAGTCACCTAGTGCAG", "binding signal": "4230 fluorescence intensity (a.u.)"}, {"sequence": "TCACTCATTTATCCGATGTGATGGCTGAGTCAGCATGGGACGGAGTCACCTAGTGCAG", "binding signal": "21100 fluorescence intensity (a.u.)"}, {"sequence": "CCCAGTGCCCCGGCGGCCAGATCTCCTCATGCCACTCGTGCGGAGTCACCTAGTGCAG", "binding signal": "3350 fluorescence intensity (a.u.)"}, {"sequence": "CCACTGACAAGTGGGCCCCACCATGACGTTATCTCCTTCACGGAGTCACCTAGTGCAG", "binding signal": "4910 fluorescence intensity (a.u.)"}, {"sequence": "TATAAGCACAATGCAGCCTAGTTGTTGCCGTGACCTGAGTCGGAGTCACCTAGTGCAG", "binding signal": "3180 fluorescence intensity (a.u.)"}, {"sequence": "ACCACCATCATCTCCAGTCGCCTAGTCACCTTTCTTGTAGCGGAGTCACCTAGTGCAG", "binding signal": "7480 fluorescence intensity (a.u.)"}, {"sequence": "TGCCAGGTGCGTGCGTGCGTGCGTCTCCTCCCCTTCCCTCCGGAGTCACCTAGTGCAG", "binding signal": "10200 fluorescence intensity (a.u.)"}, {"sequence": "GTCACCGAAGGCGATTAAGGGACAAGCTATAGCTGATTTTCGGAGTCACCTAGTGCAG", "binding signal": "46100 fluorescence intensity (a.u.)"}, {"sequence": "AGTCCCACCACATGACTCAACAACACATTCTCTGTCTCTCCGGAGTCACCTAGTGCAG", "binding signal": "7820 fluorescence intensity (a.u.)"}, {"sequence": "GCCGTGAGCCCACAGCGGGTGAGGCGGACACGTCGCCCACCGGAGTCACCTAGTGCAG", "binding signal": "3990 fluorescence intensity (a.u.)"}, {"sequence": "AAATTAACAATCAGATATAGGGGCAATACAGTAATTCACGCGGAGTCACCTAGTGCAG", "binding signal": "3170 fluorescence intensity (a.u.)"}, {"sequence": "ACACAGAGGCCGTGTTTAGTTCTCTCAAATTCTCAACTTTCGGAGTCACCTAGTGCAG", "binding signal": "25400 fluorescence intensity (a.u.)"}, {"sequence": "TTATTAATTATTTTATTTGTGACTTACTTTATTGTCTACACGGAGTCACCTAGTGCAG", "binding signal": "3500 fluorescence intensity (a.u.)"}, {"sequence": "CGGATTGGACGCCCCGACGGTCTTCCCCGGCAGCGAGGATCGGAGTCACCTAGTGCAG", "binding signal": "3580 fluorescence intensity (a.u.)"}, {"sequence": "CGTCCATGACACGTGGGGCCCGGCAGTGCCGAATCGCCCTCGGAGTCACCTAGTGCAG", "binding signal": "12100 fluorescence intensity (a.u.)"}, {"sequence": "GCTTGCGTCGTAAGCCGGCTTACGTCGTAAGCTGGCTTCTCGGAGTCACCTAGTGCAG", "binding signal": "3190 fluorescence intensity (a.u.)"}, {"sequence": "TGTAATTATAGTACAATCGTAGTGTAATTACACTGTAACTCGGAGTCACCTAGTGCAG", "binding signal": "3480 fluorescence intensity (a.u.)"}, {"sequence": "AGAATAATTATATTGGGATGGGATAAAGTATGAATTTTCTCGGAGTCACCTAGTGCAG", "binding signal": "3240 fluorescence intensity (a.u.)"}, {"sequence": "CCGTATACATAGCTAGCTGTCTGTGATGCATGCATGGTCACGGAGTCACCTAGTGCAG", "binding signal": "44200 fluorescence intensity (a.u.)"}, {"sequence": "GCCGTCTCGCCTCCTATTCTGTCGCGACGCCACCACTGCTCGGAGTCACCTAGTGCAG", "binding signal": "3440 fluorescence intensity (a.u.)"}, {"sequence": "TAATCTAGTTGGGCCGCCTAGTCAGACGCATGAACGGCCACGGAGTCACCTAGTGCAG", "binding signal": "36000 fluorescence intensity (a.u.)"}, {"sequence": "ACCCGCACGTCTTCCGCGGCCACGCCACCGTCGATCCCCGCGGAGTCACCTAGTGCAG", "binding signal": "3690 fluorescence intensity (a.u.)"}, {"sequence": "GCGCCACGGCTACACGACTCCGCGCGGGTGCGAGCGGCGGCGGAGTCACCTAGTGCAG", "binding signal": "3620 fluorescence intensity (a.u.)"}, {"sequence": "GTTAGGGGATGAGCGGAGGAAATCGTCATCGGTGGCAGTGCGGAGTCACCTAGTGCAG", "binding signal": "5200 fluorescence intensity (a.u.)"}, {"sequence": "GAATGTTAAACACACGTTACTCTACCACCTGGTGCAATGGCGGAGTCACCTAGTGCAG", "binding signal": "3150 fluorescence intensity (a.u.)"}]}]}
